This is an account of results in publication PMC4801951.

Chains of the proteins cited; added tags and fusions are not shown.
UniProt P42227: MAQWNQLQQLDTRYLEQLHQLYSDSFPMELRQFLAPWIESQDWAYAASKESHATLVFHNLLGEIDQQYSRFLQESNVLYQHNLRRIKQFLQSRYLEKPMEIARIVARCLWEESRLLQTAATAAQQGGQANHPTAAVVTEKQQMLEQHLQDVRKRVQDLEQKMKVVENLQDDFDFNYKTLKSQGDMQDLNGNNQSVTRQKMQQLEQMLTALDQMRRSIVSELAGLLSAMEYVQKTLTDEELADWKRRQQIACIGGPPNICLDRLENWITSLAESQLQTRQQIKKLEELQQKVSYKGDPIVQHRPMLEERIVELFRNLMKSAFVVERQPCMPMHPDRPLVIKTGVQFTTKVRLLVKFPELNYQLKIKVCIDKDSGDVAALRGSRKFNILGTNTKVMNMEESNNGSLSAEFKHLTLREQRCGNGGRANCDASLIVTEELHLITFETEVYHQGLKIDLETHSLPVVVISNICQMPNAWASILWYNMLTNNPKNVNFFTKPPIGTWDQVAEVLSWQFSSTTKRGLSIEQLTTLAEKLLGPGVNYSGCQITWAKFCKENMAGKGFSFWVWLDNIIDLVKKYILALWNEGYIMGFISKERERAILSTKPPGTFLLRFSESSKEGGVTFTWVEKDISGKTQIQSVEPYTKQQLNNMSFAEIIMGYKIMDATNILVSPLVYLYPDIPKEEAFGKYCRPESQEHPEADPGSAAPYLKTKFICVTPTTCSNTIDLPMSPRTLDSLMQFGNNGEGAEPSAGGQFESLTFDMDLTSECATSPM

In this assay the target is T1, Atad3 (mouse (endogenous in mouse ES cells)) (UniProt Q925I1).
T1 sequence: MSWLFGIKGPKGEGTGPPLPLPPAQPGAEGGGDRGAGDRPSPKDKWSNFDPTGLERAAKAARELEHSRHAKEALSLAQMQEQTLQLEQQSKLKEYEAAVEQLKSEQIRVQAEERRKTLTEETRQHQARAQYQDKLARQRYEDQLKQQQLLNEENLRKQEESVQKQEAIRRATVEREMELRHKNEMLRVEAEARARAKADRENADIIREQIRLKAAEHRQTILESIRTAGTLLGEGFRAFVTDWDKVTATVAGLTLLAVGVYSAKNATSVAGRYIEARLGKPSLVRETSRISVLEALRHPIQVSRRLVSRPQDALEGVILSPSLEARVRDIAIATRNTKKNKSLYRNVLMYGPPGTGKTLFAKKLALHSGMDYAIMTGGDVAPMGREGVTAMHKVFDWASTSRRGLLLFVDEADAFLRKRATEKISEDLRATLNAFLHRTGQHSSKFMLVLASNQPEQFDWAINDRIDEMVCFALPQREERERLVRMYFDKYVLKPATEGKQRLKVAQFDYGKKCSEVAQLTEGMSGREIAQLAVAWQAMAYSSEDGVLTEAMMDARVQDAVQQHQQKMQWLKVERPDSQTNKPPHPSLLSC
Briefly: proximity ligation; fixed mouse ES cells, anti-Stat3 and anti-Atad3 primary antibodies overnight, OLink Bioscience kit, confocal imaging, red dots per cell counted; single antibodies and Stat3-/- cells as controls.

Results are given in words; binding and its absence hold for the method and conditions named. Binding seen in cells or lysates may run through a third protein. Some binding calls cover weakened binding; strength is not graded here.

With Stat3 (from UniProt P42227 1-770), the binding result is on record as “binds”.
